# In PubChem BioAssay AID1487 (National Center for Advancing Translational Sciences (NCATS), 2009):
# Some of the results follow. The main result of the screen is listed elsewhere. These columns were measured beside it and carry no call. Compounds called inactive in the main read-out are mostly missing here. The note in brackets gives the kind of curve behind each potency; many fits are weak.
# Experiment: qHTS Assay for Modulators of Lamin A Splicing
# Conditions: HeLa LMNA splicing GFP/RFP minigene ratio, 48 h
# Method in brief: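 Read-out is the ratio of GFP to DsRed2 object intensity, acquired by 488 nm laser-scanning cytometry on HeLa lamin A-EGFP minigene reporter cells. Compound incubation 48 hrs at 37 °C in Opti-MEM with 2% FBS; DMSO 0.5% final.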
# [1] = measured here: GFP splicing reporter channel
# [2] = measured here: RFP viability control channel
Compound,AC50 [1],AC50 [2]
COc1ccc(C[C@@H]2c3cc(OC)c(OC)cc3CC[N@+]2(C)CCC(=O)OCCCCCOC(=O)CC[N@@+]2(C)CCc3cc(OC)c(OC)cc3[C@H]2Cc2ccc(OC)c(OC)c2)cc1OC,"0.1 µM [rising, full curve, poor fit]","0.126 µM [rising, partial curve, poor fit]"
NC(=O)CSc1nc(C23CC4CC(CC(C4)C2)C3)nc2ccccc12,"20 µM [falling, partial curve, poor fit]","25.1 µM [falling, single point]"
CC(C)Cn1c(N)c(C(=O)COC(=O)c2ccc3c(c2)OCCO3)c(=O)n(C)c1=O,"31.6 µM [rising, single point]","22.4 µM [rising, single point]"
Cc1cc(Cl)ccc1OC(C)C(=O)Nc1ccccc1N1CCOCC1 (stereo not given),–,"25.1 µM [rising, single point]"
O=C(NN1C(=O)c2ccccc2C1=O)c1ccncc1,–,"0.00501 µM [falling, full curve, poor fit]"
O=C(Nc1cccc([N+](=O)[O-])c1)c1cc2ccccc2cc1O,–,"6.31 µM [rising, full curve, poor fit]"
Fc1ccc2[nH]c3c(N4CCSCC4)ncnc3c2c1,–,"2.51 µM [rising, full curve, poor fit]"
O=C(NCCC1=CCCCC1)c1cccc2c1C(=O)N(C1CCCCC1)C2,"28.2 µM [falling, partial curve]","25.1 µM [falling, partial curve]"
O=C1N/C(=N\N=C\c2cccnc2)SC1Cc1ccc(SC(F)F)cc1 (stereo not given),–,"7.94 µM [rising, partial curve]"
Cc1cn(C)c(CC(=O)Nc2cccc(C#N)c2)c1C(=O)O,"0.01 µM [falling, full curve, poor fit]","0.0398 µM [falling, full curve]"
CCC1(C(=O)c2ccccc2)C(c2ccc([N+](=O)[O-])cc2)C1(C(=O)OC)C(=O)OC (stereo not given),–,"3.98 µM [rising, partial curve, poor fit]"
Cc1ccc2cccc(S(=O)(=O)N3CCN(c4ccccc4F)CC3)c2n1,–,"8.91 µM [rising, partial curve, poor fit]"
Cc1ccc(-c2nn3c(=O)cc(CN4CCN(C(=O)Nc5cccc(C(F)(F)F)c5)CC4)nc3s2)cc1,"35.5 µM [rising, single point]",–
COc1ccc(C(=O)Nc2ccc3cn[nH]c3c2)c(OC)c1,–,"0.631 µM [rising, partial curve]"
CCOC(=O)Cc1ccc(NC(=O)c2ccc([N+](=O)[O-])cc2)cc1,"3.55 µM [rising, partial curve]","3.16 µM [rising, full curve, poor fit]"
O=C(CN(c1ccc(F)cc1)S(=O)(=O)c1ccc2c(c1)OCCO2)NCc1ccncc1,–,"0.282 µM [falling, partial curve]"
COc1ccccc1NC(=O)Cc1csc(NC(=S)Nc2ccccc2)n1,–,"35.5 µM [rising, single point]"
Cc1ccc(OCC(=O)NC(C)c2ccccc2)c([N+](=O)[O-])n1 (stereo not given),"35.5 µM [falling, partial curve, poor fit]",–
CCn1c(SCC(=O)N/N=C/c2ccc(C)o2)nnc1-c1ccc(C(C)(C)C)cc1,"35.5 µM [rising, single point]","35.5 µM [rising, single point]"
COc1ccccc1-n1cnnc1SCC(=O)c1cc(C)n(Cc2cccs2)c1C,"8.91 µM [rising, partial curve]","10 µM [rising, partial curve]"
O=S(=O)(Nc1nc2ccccc2nc1-[n+]1ccccc1)c1ccc(Cl)cc1,–,"25.1 µM [rising, partial curve]"
CCOc1cc2[nH]c(=O)n(CCCCC(=O)N3CCN(c4ccccc4OC)CC3)c(=O)c2cc1OCC,–,"0.355 µM [falling, partial curve, poor fit]"
CCOC(=O)/C=C/COc1ccccc1[N+](=O)[O-],"0.00398 µM [rising, full curve, poor fit]",–
CCc1cccc(NC(=O)Cn2c(=O)n3nc(-c4cccc(F)c4)nc3c3ccccc32)c1,"5.62 µM [falling, partial curve, poor fit]","28.2 µM [falling, partial curve]"
COC(=O)c1sc(-c2ccccc2)cc1NC(C)=O,–,"10 µM [falling, partial curve, poor fit]"
CCN(CC)S(=O)(=O)c1ccc2oc(C(=O)NCc3ccc(F)cc3)c(C)c2c1,–,"11.2 µM [rising, single point]"
Cc1ccc(NC(=S)N2CCCC(c3nc4ccc(C)cc4[nH]3)C2)c(C)c1 (stereo not given),"0.0112 µM [rising, partial curve]",–
CCOC(=O)c1cc(-c2ccccc2)n(CCCC(=O)Nc2ccccc2C)c1C,–,"0.398 µM [falling, full curve, poor fit]"

# A few values from above.
# Entry of COc1ccccc1NC(=O)Cc1csc(NC(=S)Nc2ccccc2)n1 under AC50 [2]: 35.5 µM [rising, single point]
# Entry of O=C1N/C(=N\N=C\c2cccnc2)SC1Cc1ccc(SC(F)F)cc1 (stereo not given) under AC50 [2]: 7.94 µM [rising, partial curve]

# Pulled by structure from the list above, two records:
Compound,AC50 [1],AC50 [2]
Cc1cc(Cl)ccc1OC(C)C(=O)Nc1ccccc1N1CCOCC1 (stereo not given),–,"25.1 µM [rising, single point]"
O=C(NCCC1=CCCCC1)c1cccc2c1C(=O)N(C1CCCCC1)C2,"28.2 µM [falling, partial curve]","25.1 µM [falling, partial curve]"

# Going on with the list:

Compound,AC50 [1],AC50 [2]
CC1CC(C)CN(S(=O)(=O)c2ccc(C(=O)N3CCN(c4ccccc4)CC3)cc2)C1 (stereo not given),–,"22.4 µM [rising, partial curve]"
O=C(/C(=C\c1ccccc1)c1nc2ccccc2[nH]1)c1ccc(Cl)cc1,"35.5 µM [falling, single point]","35.5 µM [falling, single point]"
O=C(Nc1ccc(-c2nc3ccccc3[nH]2)cc1)c1cccc(N2C(=O)CCC2=O)c1,–,"0.1 µM [rising, full curve, poor fit]"
Cc1ccc(CNC(=O)CC2C(=O)Nc3c2c(=O)n(C)c(=O)n3Cc2ccccc2)cc1 (stereo not given),–,"4.47 µM [falling, single point]"
CCc1ccc(NC(=O)CN2C(=O)c3ccccc3Sc3ccc(C(=O)N4CCCC4)cc32)cc1,"35.5 µM [falling, partial curve, poor fit]","35.5 µM [falling, partial curve, poor fit]"
Cc1ccc2nc(COc3cccc(NC(=O)c4ccccc4Cl)c3)cc(=O)n2c1,"7.08 µM [falling, partial curve]","0.794 µM [falling, full curve, poor fit]"
Cc1ccc(-c2nc(CCNC(=O)C(=O)Nc3c(C)cccc3C)cs2)cc1,"0.126 µM [rising, partial curve, poor fit]",–
CC(C)c1nnc(N2C(=O)C(O)=C(C(=O)c3cccs3)C2c2ccccc2)s1 (stereo not given),–,"7.08 µM [rising, partial curve, poor fit]"
Cc1ccc2c(c1)c1nc3ccccc3nc1n2CCN1CCOCC1,–,"2.82 µM [rising, full curve, poor fit]"
CN(C)CCNc1oc(COc2cccc(Cl)c2)nc1C#N,"14.1 µM [rising, single point]",–
COc1cc2[nH]c3c(N4CCN(c5ccccn5)CC4)ncnc3c2cc1OC,–,"7.08 µM [rising, partial curve]"
Cc1ccc(-c2nn(C)c(=O)c3ccccc23)cc1S(=O)(=O)N1CCCC1,–,"11.2 µM [rising, single point]"
CC(C)c1ccc(/C=C(/C#N)c2nnc(NC(=O)c3ccccc3)s2)cc1,"5.62 µM [rising, full curve]","5.62 µM [rising, partial curve]"
CCCN(CCC)C(=O)c1nn(C)c2c1CSc1ccc(C)cc1-2,"2 µM [falling, single point]",–
CC(C)Cc1nc(N2CCN(C(=O)c3ccco3)CC2)c(C#N)c2c1CCC2,"14.1 µM [rising, single point]","20 µM [rising, single point]"
O=C(Nc1ccc(Cl)c(Cl)c1)Nc1cc(S(=O)(=O)N2CCOCC2)ccc1N1CCCC1,–,"17.8 µM [rising, partial curve]"
COC(=O)c1cc(Sc2cccc(Cl)c2Cl)ccn1,"20 µM [falling, single point]",–
CCOc1ccccc1CNC(=O)c1nn(CC)cc1[N+](=O)[O-],"35.5 µM [rising, single point]",–
Cc1ccc(OCCCNCCO)c(Br)c1,–,"12.6 µM [rising, single point]"
COc1ccc(S(=O)(=O)Nc2ccc(NC(C)=O)cc2)cc1Br,–,"3.55 µM [rising, single point]"
CC(=O)Nc1nc(-c2ccc3c(c2)CCO3)cs1,–,"17.8 µM [falling, single point]"
CCOC(=O)N1CCN(CC(=O)Nc2c(C(=O)OC)[nH]c3ccc(Cl)cc23)CC1,–,"15.8 µM [rising, partial curve]"
Cc1noc(C)c1COC(=O)c1cc2c3ccccc3n(C)c2s1,–,"15.8 µM [rising, single point]"
Cc1ccc(NC(=S)N(CCN2CCCCC2)Cc2ccco2)cc1C,"35.5 µM [falling, single point]",–
COc1ccc(C)cc1NC(=O)c1oc2ccc(S(=O)(=O)N3CCC4(CC3)OCCO4)cc2c1C,–,"0.447 µM [falling, full curve, poor fit]"
CCN(C(=O)COC(=O)c1c2c(nc3ccccc13)/C(=C/c1ccccc1)CC(C)C2)C1CCS(=O)(=O)C1 (stereo not given),"35.5 µM [falling, single point]","22.4 µM [falling, single point]"
CC(=O)Nc1ccc(NC(=O)CSc2nccn2Cc2ccccc2)cc1,–,"20 µM [rising, single point]"
